Results reported in publication PMC12670160, “A drug-repurposing screen of FDA- and EMA-approved drugs identifies two NF-κB inhibitors active against eumycetoma” (Journal of Antimicrobial Chemotherapy, 2025).
Where a name gives a salt, the structure may show the parent alone. In all, about 5,300 compounds went through this assay and about 130 (2.5%) showed an effect of 50% or more. The list shows a part of the results.

System: M. mycetomatis strain mm55
Settings: primary screen, metabolic activity vs growth control; 96 h, 2 µM; inhibitor

Row | SMILES | % viability [%]
1 | Oc1c(I)cc(I)c(O)c1I [ONC0003806, riodoxol] | 55.27
2 | CCCN(C/C=C/I)C1CCc2cccc(O)c2C1 (stereo not drawn) [ONC0000125, 8hydroxypipat] | 86.56
3 | CCC(Oc1ccc(Cl)cc1)C(=O)OC1CC2CCC(C1)N2C (stereo not drawn) [ONC0000115, sm21] | 119.3
4 | O=c1c(O[C@@H]2O[C@H](CO)[C@H](O)[C@H](O)[C@H]2O)c(-c2ccc(O)c(O)c2)oc2cc(O)cc(O)c12 [ONC0002825] | 91.4
5 | Nc1nc(Cl)nc2c1ncn2[C@@H]1O[C@H](CO)[C@@H](O)[C@H]1O [ONC0002576, 2chloroadenosine] | 91.53
6 | O=c1[nH]c2ccccc2n1CCCN1CCN(C(c2ccccc2)c2ccccc2)CC1 [ONC0003510, oxatomide] | 63.66
7 | CC(C)[N+](C)(CCC(C(N)=O)(c1ccccc1)c1ccccc1)C(C)C [ONC0000564, isopropamide iodide] | 79.28
8 | Nc1nc2ncc(CNc3ccc(C(=O)N[C@@H](CCC(=O)O)C(=O)O)cc3)nc2c(=O)[nH]1 [ONC0000639, folic acid] | 99.2
9 | CC(C)[C@H](CO)Nc1nc(Nc2ccc(C(=O)O)c(Cl)c2)c2ncn(C(C)C)c2n1 [ONC0001466, purvalanolb] | 58.63
10 | COc1cc(COc2cc(N)c(Cl)cc2C(=O)CCC2CCN(CCNS(C)(=O)=O)CC2)cc(OC)c1 [ONC0001907, rs39604] | 85.64
11 | Cc1n[nH]c2ccc(-c3cncc(OC[C@@H](N)Cc4ccccc4)c3)cc12 [ONC0005067, a674563] | 73.24
12 | COc1ccc2nc([S@@+]([O-])Cc3ncc(C)c(OC)c3C)[nH]c2c1 [ONC0004845, nexium esomeprazole magnesium] | 116.2
13 | Cc1cc(C)c(S(=O)(=O)Nc2ccccc2C(F)(F)F)c(C)c1 [ONC0000959, o3m3fbs] | 72.31
14 | Cc1c(-c2cnccn2)ssc1=S [ONC0004101, oltipraz] | 111.4
15 | N#Cc1cnc2cnc(NCc3cccnc3)cc2c1Nc1ccc(F)c(Cl)c1 [ONC0001337, tcs7006] | 78.74
16 | Cn1cc(CCn2cnc(-c3cnn(C)c3)c2-c2ccc(C#N)cc2)cn1 [ONC0003022, baz2icr] | 78.44
17 | Cn1cnc([N+](=O)[O-])c1Sc1ncnc2nc[nH]c12 [ONC0003177, azathioprine] | 69.21
18 | CCn1c2ccccc2c2cc(CNCc3ccccc3OC)ccc21 [ONC0001052, hlcl61 hydrochloride] | 87.19

Laid out differently: two of the compounds above.
Cn1cc(CCn2cnc(-c3cnn(C)c3)c2-c2ccc(C#N)cc2)cn1 [ONC0003022, baz2icr]
  % viability [%]: 78.44
CCn1c2ccccc2c2cc(CNCc3ccccc3OC)ccc21 [ONC0001052, hlcl61 hydrochloride]
  % viability [%]: 87.19
